Some of the results follow.

The assay concerns T1, CTL2-GFP (C. trachomatis L2/434/Bu, GFP-expressing).
T1 construct: L2/434/Bu, GFP-expressing
Details: species or system HeLa; Intracellular C. trachomatis growth in HeLa cells, bulk GFP fluorescence relative to DMSO. The note with it: bulk GFP, single well; 28.5 h, 10 µM; inhibitor.
Take `Cn1ncc2c(NCC(=O)N3CCNCC3)nc(C(C)(C)C)nc21` [CBK307702]: the “% of control remaining” value is 73.7628%.
For the molecule `O=S(=O)(NCCCN1CCN(Cc2ccccc2)CC1)c1cccc(Cl)c1Cl` [CBK074655], the “% of control remaining” value was found to be 101.823%.
Turning to `COc1nccnc1-c1ccc(SC)cc1` [CBK106795], the “% of control remaining” value is 122.998%.
Consider `COc1ccc(-c2nn(-c3ccccc3)cc2C(=O)Nc2ccc(C(=O)O)cc2)cc1OC` [CBK296112], for which the “% of control remaining” value was 138.87%.
For `Cc1ccccc1NC(=O)NC(=O)C1CCN(S(C)(=O)=O)CC1` [CBK034862] the value was 116.129%; for `c1ccc2nc(N3CCCC3)c(SCCc3cnccn3)nc2c1` [CBK103695], 105.445%; for `CN(CCN(C)/N=C/c1cccc2ccccc12)/N=C/c1cccc2ccccc12` [CBK262153], 111.194%.
For `COCCCn1c(=O)[nH]c2ncc(-c3cccc(CO)c3)nc21` [CBK065104] the value was 159.733%; for `CC(=O)NCC(=O)N1C[C@@H]2CCCCN(Cc3cccc(F)c3)[C@@H]2C1` [CBK285515], 117.292%.
For `CC(N(C)S(=O)(=O)c1ccc(-n2ncc(Cl)c(Cl)c2=O)cc1)C(C)(C)C` (centres unmarked) [CBK304544] the value was 75.9275%; for `CC(NC(=O)CS(=O)(=O)Cc1ccc(C#N)cc1)c1ccc(C#N)cc1` (centres unmarked) [CBK297791], 117.076%; for `Cc1nc2ccccn2c1-c1csc(Nc2cccc(C(=O)O)c2)n1` [CBK263303B], 123.043%.
For `O=C(Nc1cccc2c(NC(=O)N3CCCCC3)cccc12)N1CCCCC1` [CBK010775], the “% of control remaining” value worked out at 19.1934%.
For `CCC(=O)Nc1ccc2oc(-c3cccc(C)c3)nc2c1` [CBK263065], the “% of control remaining” value is listed as 100%.
For `O=C(Cc1ccc2c(c1)CCCO2)NCc1ccccc1-n1ccnc1` [CBK281463] the value was 115.636%; for `CC[C@H](Cn1c(=O)oc2ccccc21)NC(=O)c1cccs1` [CBK284540], 153.357%; for `CN(C(=O)C12CCOCC1CN(c1nccnc1C#N)C2)C1CCCC1` (centres unmarked) [CBK304244], 134.948%.
In the case of `CCC(C)NC(=O)Cn1c(C2CCNCC2)cc2cccnc21` (centres unmarked) [CBK285003], the “% of control remaining” value came to 95.2459%.
For `CC(C)CC(C(=O)Nc1ccc(C2CCCC2)cc1)N1CCN(C)CC1` (centres unmarked) [CBK024386C] the value was 110.193%; for `Cn1cc(CN(C(=O)c2nc(N)nc3c2CCCC3)C2CC2)cn1` [CBK307352], 131.044%; for `c1cc(CCNc2nccn3ccnc23)ccn1` [CBK037976], 172.039%.
For `Cc1cc(C(=O)N2CCN(Cc3ccc4c(c3)OCO4)CC2)nn1C` [CBK074832] the value was 103.535%; for `O=C(NCCc1ccncc1)c1cccs1` [CBK056969], 143.552%; for `CCOC(=O)Cc1nnc(-c2ccc(Cl)cc2)[nH]1` [CBK021882], 101.638%.
For `Cc1ccc2nc(-c3ccc(-c4ccc(C(C)C)cc4)o3)cc(C(=O)O)c2c1` [CBK300083] the value was 67.14%; for `O=C(Nc1cccnc1)N1CCN(c2ccc(F)cc2)CC1` [CBK156427], 95.394%.
On to `COc1ccccc1CN(C)S(=O)(=O)c1ccc(S(N)(=O)=O)cc1` [CBK306008], for which the “% of control remaining” value is given as 116.565%.
On to `COc1ccc(CC(=O)N2CCC(c3cc4ccccc4cn3)C2)cc1` (centres unmarked) [CBK283421], for which the “% of control remaining” value worked out at 87.9146%.
For `CCCc1cc(=O)[nH]c(SCc2noc(-c3snnc3C)n2)n1` [CBK006474], the “% of control remaining” value turned out to be 116.408%.
For `CCN1C(=O)c2ccccc2C(=O)[C@@]2(C)CN(CC(C)C)C[C@@H]12` [CBK283479] the value was 120.396%; for `O=C1CSC2(C(=O)Nc3ccccc32)N1c1cccc(F)c1` (centres unmarked) [CBK093488], 91%; for `CC(C)(C)OC(=O)N(CCCN1CCN(c2ccc(F)cc2)CC1)c1ccccc1` [CBK016723], 109.302%.
On to `O=C(N/N=C/c1cc(O)c(Br)cc1Br)c1ccncc1` [CBK262297], for which the “% of control remaining” value came to 124.447%.
For `COc1ccc2[nH]c3c(c2c1)CCOC31CCN(C(=O)N[C@@H](C)c2ccccc2)CC1` [CBK047114] the value was 126.287%.
On to `CN(C)c1ncc(-c2cccc(Cl)c2)c(C2CCCN2C(=O)CC2CCCC2)n1` (centres unmarked) [CBK286253], for which the “% of control remaining” value is 41.742%.
`CC(O)CNCc1ccc(OCC(=O)NC(C)(C)C)cc1` (centres unmarked) [CBK270232C]: the “% of control remaining” value came to 110.941%.
For `CCn1cc(CN(CC(C)C)C(=O)c2ccccc2C#N)cn1` [CBK306729], the “% of control remaining” value was determined as 116.728%.
For `COc1ccc(CC(=O)N2CCCCC2c2ccc(Cc3cccc(F)c3)nc2)cc1` (centres unmarked) [CBK286493] the value was 107.592%; for `Cc1cc(NC(=O)c2ccc(N3C(=O)CCC3=O)cc2)nc2c1c(=O)oc1ccccc12` [CBK291205], 145.836%.
For `O=S(=O)(NCCn1cccc1)c1ccc2ccccc2c1` [CBK270211] the value was 137.749%; for `c1ccc2c(CCN3CCC(Oc4cncc(OCCN5CCOCC5)n4)C3)c[nH]c2c1` (centres unmarked) [CBK084500], 118.072%.
For `Cc1nc2c(cc(OCC(O)COc3ccc(C#N)cc3)c3ccsc32)s1` (centres unmarked) [CBK296632] the value was 181.557%; for `CCCCC(C(=O)O)N1C(=O)c2ccccc2C1=O` (centres unmarked) [CBK287153], 114.407%.
Consider `CC(C)(C)c1nc(NS(=O)(=O)c2ccc(Cl)cc2)sc1Br` [CBK014258], for which the “% of control remaining” value was 123.223%.
As for `O=C(O)[C@@H]1CCCN1C(=O)CCn1nnc2ccccc2c1=O` [CBK286765], the “% of control remaining” value was 165.685%.
For `Cn1nnnc1SCC(=O)Nc1cc(F)ccc1F` [CBK057872] the value was 128.955%; for `CCCC(=O)c1ccc(S(=O)(=O)N2CCN(Cc3c[nH]nc3-c3cccs3)CC2)cc1` [CBK063160], 124.652%.
For `Cc1cc(C)n(Cc2cc(C(=O)NCC(C)Oc3cccnc3)n[nH]2)n1` (centres unmarked) [CBK307609] the value was 139.875%; for `O=C(CCNS(=O)(=O)c1ccc(Cl)cc1)N1CCN(Cc2ccccc2)CC1` [CBK269405], 112.04%.
For `CC1CN(CCOc2ccccc2C=O)CC(C)O1` (centres unmarked) [CBK269687C] the value was 106.561%.
Turning to `Cc1cccc(OC(C)C(=O)Nc2ccccc2C(=O)N2CCCCC2)c1` (centres unmarked) [CBK269960], the “% of control remaining” value is recorded as 112.525%.
For `Cc1n[nH]c(C)c1CNC(=O)CCc1ccc(Cl)cc1` [CBK283185] the value was 109.712%; for `Fc1ccc(CNc2c(-c3ccco3)nc3cnccn23)cc1` [CBK283694], 163.735%.
For `O=C(O)c1cccnc1SC1CC(=O)N(c2ccc([N+](=O)[O-])cc2)C1=O` (centres unmarked) [CBK263079] the value was 115.673%; for `S=C(NCCCN1CCOCC1)Nc1cccc(Cl)c1` [CBK263255], 95.7183%.
As to `COCC(=O)N[C@H]1C[C@H]2C(=O)Nc3ccc(Br)cc3C(=O)N2C1` [CBK289357], the “% of control remaining” value was determined as 140.868%.
For `O=C(CC1CCCCC1)N1CCN(c2ncccn2)CC1` [CBK144529] the value was 144.366%.
Take `COc1ccc(OC)c(-c2ccc(NC(=O)c3ccc(Cl)cc3Cl)c(C(=O)O)c2)c1` [CBK000393D]: the “% of control remaining” value was determined as 136.393%.
For `CC(/C=C1\SC(=S)N(C(Cc2ccccc2)C(=O)O)C1=O)=C\c1ccccc1` (centres unmarked) [CBK263524] the value was 100%.
Take `CC(CC(=O)N1CCCC(c2cc3cccnc3[nH]2)C1)n1cccn1` (centres unmarked) [CBK284996]: the “% of control remaining” value is 107.432%.
`CCc1c(C)nc2ccccc2c1SCCC(=O)O` [CBK116382C]: the “% of control remaining” value turned out to be 131.218%.
With `COc1ccc(S(=O)(=O)NCCCn2ccnc2)cc1Cl` [CBK269997], the “% of control remaining” value is 100.033%.
For `O=C(CSc1ccccc1)Nc1cc(Cl)ccc1O` [CBK265837] the value was 168.928%.
On to `O=C(NCc1ccc(F)cc1)[C@H]1CN2CCC1C[C@@H]2Cn1cc(C2(O)CCCC2)nn1` (some centres unmarked) [CBK289093], for which the “% of control remaining” value was determined as 97.756%.
For `CCCCOc1ccc(C=Cc2nc3sc(C(=O)O)c(C)c3c(=O)[nH]2)cc1` [CBK297524] the value was 119.829%.
Turning to `COC(=O)c1cc(O)ccc1N` [CBK002250], the “% of control remaining” value is reported as 117.629%.
For `CC1(C)CC(=O)c2sc(NC(=O)Nc3ccccc3)nc2C1` [CBK287319] the value was 122.963%; for `O=C(Nc1ccc(Cc2ccc(NC(=O)c3ccc(Br)cc3)c(O)c2)cc1O)c1ccc(Br)cc1` [CBK262086], 106.205%; for `N#CCNS(=O)(=O)c1ccc(OC(F)(F)F)cc1` [CBK044841], 120.685%.
For `Cc1ccc(CN(CCCN(C)C)Cc2nccn2C)o1` [CBK282481] the value was 128.049%.
In the case of `COc1ccc(C(=O)O)cc1S(=O)(=O)N1CCCCCC1` [CBK261742], the “% of control remaining” value worked out at 100%.
Consider `CCn1c(SCC(=O)Nc2ccc(OC)c(Cl)c2)nnc1-c1ccccc1O` [CBK268021], for which the “% of control remaining” value is recorded as 109.888%.
For `COc1ccc2cc(/C=C(\C#N)c3nc(-c4cc5c(ccc6ccccc65)oc4=O)cs3)c(Cl)nc2c1` [CBK261636] the value was 100%.
For `Cc1ccc(C(O)CN(C)Cc2c(C)nn(C)c2C)c(C)c1` (centres unmarked) [CBK282939] the value was 147.261%.
For the molecule `CC(=O)N1CCCN(C(=O)c2ncoc2-c2ccc(F)cc2)CC1` [CBK282398], the “% of control remaining” value amounted to 144.109%.
For the molecule `Cc1cnc2c(Cl)c(C(=O)NCC(F)(F)F)nn2c1` [CBK307391], the “% of control remaining” value was found to be 140.351%.
Turning to `CCc1ccc(/C=N/N2CCN(Cc3cccc4ccccc34)CC2)cc1` [CBK262986], the “% of control remaining” value came to 132.881%.
Regarding `Cc1coc(C)c1C(=O)CC1(O)C(=O)N(CCc2ccccc2)c2ccccc21` (centres unmarked) [CBK293975], the “% of control remaining” value came out at 120.33%.
For `Cc1cc(Cl)c(S(=O)(=O)Nc2ccc(Oc3ccccc3)cc2)cc1OCC(N)=O` [CBK266583] the value was 128.962%.
Turning to `OC1(Cn2ccc3ncccc32)CCN(Cc2ccccc2F)CC1` [CBK284752], the “% of control remaining” value stood at 113.827%.

The values are drawn from article PMC12040169 (PLOS Biology, 2025).
